Results deposited as PubChem BioAssay AID1508597 (Cure First, 2020).

- Test: 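Genes whose silencing sensitises or protects ovarian cancer cells against rucaparib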 (primary screen)
- Cell system: human ovarian carcinoma lines grown from tumours: OCI-P5x (papillary serous) and OCI-C5x (clear cell)
- Knock-down reagent: siRNA pool against human genes, 1.25 pmol siRNA per well
- Timing: 72 h or 96 h, depending on the cell culture
- Challenge: rucaparib 20 µM (about IC30) or vehicle, present until read-out
- Rucaparib or vehicle: Vehicle
- Cell line: OCI-C5x (clear cell)
- Measurement: 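ATP luminescence measured at 72 or 96 h according to the culture, then normalised and expressed as percent viability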
- Scale: viability, normalised: higher = more viable cells remaining
- Hit rule: 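a well counts as a hit if its normalised viability is under 80 percent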
- Meaning of the calls: active = viability under 80%; inactive = viability 80% or more
This is an unselected part of the about 2,100 reagents, under one of the conditions tested. 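Calls flag viability under 80% in either arm, not effects specific to rucaparib; the reference for percent is not stated.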 Some reagents were tested in more than one well and are listed for each. Not stated in the record: the 100% reference.

gene | technical replicate | viability, normalised (%) | Call
RINT1 (RAD50 interactor 1) | 1 | 74 | active
RINT1 (RAD50 interactor 1) | 2 | 58.8 | active
RINT1 (RAD50 interactor 1) | 3 | 50.7 | active
PIK3C2A | 1 | 74.4 | active
PIK3C2A | 2 | 59.5 | active
PIK3C2A | 3 | 68.3 | active
SUV39H1 (SUV39H1 histone lysine methyltransferase) | 1 | 45 | active
SUV39H1 (SUV39H1 histone lysine methyltransferase) | 1 | 58.4 | active
SUV39H1 (SUV39H1 histone lysine methyltransferase) | 2 | 43.8 | active
SUV39H1 (SUV39H1 histone lysine methyltransferase) | 2 | 59.5 | active
SUV39H1 (SUV39H1 histone lysine methyltransferase) | 3 | 33 | active
SUV39H1 (SUV39H1 histone lysine methyltransferase) | 3 | 56.5 | active
TCF7L1 (transcription factor 7 like 1) | 1 | 82.9 | inactive
TCF7L1 (transcription factor 7 like 1) | 2 | 43.1 | active
TCF7L1 (transcription factor 7 like 1) | 3 | 48.4 | active
FAAP24 (FA core complex associated protein 24) | 1 | 57.8 | active
FAAP24 (FA core complex associated protein 24) | 2 | 44.3 | active
FAAP24 (FA core complex associated protein 24) | 3 | 55.7 | active
KAT5 (lysine acetyltransferase 5) | 1 | 60.7 | active
KAT5 (lysine acetyltransferase 5) | 2 | 50.9 | active
KAT5 (lysine acetyltransferase 5) | 3 | 46.9 | active
MTA2 (metastasis associated 1 family member 2) | 1 | 55.8 | active
MTA2 (metastasis associated 1 family member 2) | 2 | 57.4 | active
MTA2 (metastasis associated 1 family member 2) | 3 | 58.8 | active
MAP3K6 (mitogen-activated protein kinase kinase kinase 6) | 1 | 80.8 | inactive
MAP3K6 (mitogen-activated protein kinase kinase kinase 6) | 2 | 64.7 | active
MAP3K6 (mitogen-activated protein kinase kinase kinase 6) | 3 | 67.5 | active
DHX9 (DExH-box helicase 9) | 1 | 29.8 | active
DHX9 (DExH-box helicase 9) | 1 | 42.1 | active
DHX9 (DExH-box helicase 9) | 2 | 36.2 | active
DHX9 (DExH-box helicase 9) | 2 | 69.7 | active
DHX9 (DExH-box helicase 9) | 3 | 29.3 | active
DHX9 (DExH-box helicase 9) | 3 | 57.2 | active
RFC4 (replication factor C subunit 4) | 1 | 40.1 | active
RFC4 (replication factor C subunit 4) | 2 | 49.1 | active
RFC4 (replication factor C subunit 4) | 3 | 45.7 | active
S100A4 (S100 calcium binding protein A4) | 1 | 34.4 | active
S100A4 (S100 calcium binding protein A4) | 2 | 33.9 | active
S100A4 (S100 calcium binding protein A4) | 3 | 47 | active
PCDHB5 (protocadherin beta 5) | 1 | 36.8 | active
PCDHB5 (protocadherin beta 5) | 2 | 40.4 | active
PCDHB5 (protocadherin beta 5) | 3 | 26.5 | active
ZBTB7A (zinc finger and BTB domain containing 7A) | 1 | 44.6 | active
ZBTB7A (zinc finger and BTB domain containing 7A) | 2 | 40.8 | active
ZBTB7A (zinc finger and BTB domain containing 7A) | 3 | 44.6 | active
NRG1 (neuregulin 1) | 1 | 28.4 | active
NRG1 (neuregulin 1) | 2 | 26.8 | active
NRG1 (neuregulin 1) | 3 | 34.8 | active
PRKACG (protein kinase cAMP-activated catalytic subunit gamma) | 1 | 71.8 | active
PRKACG (protein kinase cAMP-activated catalytic subunit gamma) | 2 | 55.9 | active
PRKACG (protein kinase cAMP-activated catalytic subunit gamma) | 3 | 78.8 | active
TRIM24 (tripartite motif containing 24) | 1 | 77.6 | active
TRIM24 (tripartite motif containing 24) | 1 | 28.6 | active
TRIM24 (tripartite motif containing 24) | 2 | 90.3 | inactive
TRIM24 (tripartite motif containing 24) | 2 | 25.3 | active
TRIM24 (tripartite motif containing 24) | 3 | 89.8 | inactive
TRIM24 (tripartite motif containing 24) | 3 | 23.4 | active
TAF8 (TATA-box binding protein associated factor 8) | 1 | 43 | active
TAF8 (TATA-box binding protein associated factor 8) | 2 | 42 | active
TAF8 (TATA-box binding protein associated factor 8) | 3 | 35.9 | active
SMAD1 (SMAD family member 1) | 1 | 36.6 | active
SMAD1 (SMAD family member 1) | 2 | 39 | active
SMAD1 (SMAD family member 1) | 3 | 36.6 | active
PLCB2 (phospholipase C beta 2) | 1 | 69.3 | active
PLCB2 (phospholipase C beta 2) | 2 | 68.6 | active
PLCB2 (phospholipase C beta 2) | 3 | 60.6 | active
PCBD1 (pterin-4 alpha-carbinolamine dehydratase 1) | 1 | 106 | inactive
PCBD1 (pterin-4 alpha-carbinolamine dehydratase 1) | 2 | 53.9 | active
PCBD1 (pterin-4 alpha-carbinolamine dehydratase 1) | 3 | 50 | active
MNAT1 (MNAT1 component of CDK activating kinase) | 1 | 38.2 | active
MNAT1 (MNAT1 component of CDK activating kinase) | 2 | 46.1 | active
MNAT1 (MNAT1 component of CDK activating kinase) | 3 | 50.6 | active
H1-4 (H1.4 linker histone, cluster member) | 1 | 47.3 | active
H1-4 (H1.4 linker histone, cluster member) | 2 | 50.1 | active
H1-4 (H1.4 linker histone, cluster member) | 3 | 47.7 | active

No new results follow: entries from further up.
gene | technical replicate | viability, normalised (%) | Call
MAP3K6 (mitogen-activated protein kinase kinase kinase 6) | 1 | 80.8 | inactive
MAP3K6 (mitogen-activated protein kinase kinase kinase 6) | 2 | 64.7 | active
MAP3K6 (mitogen-activated protein kinase kinase kinase 6) | 3 | 67.5 | active
DHX9 (DExH-box helicase 9) | 1 | 29.8 | active
DHX9 (DExH-box helicase 9) | 1 | 42.1 | active
DHX9 (DExH-box helicase 9) | 2 | 36.2 | active
DHX9 (DExH-box helicase 9) | 2 | 69.7 | active
DHX9 (DExH-box helicase 9) | 3 | 29.3 | active
DHX9 (DExH-box helicase 9) | 3 | 57.2 | active
RFC4 (replication factor C subunit 4) | 1 | 40.1 | active
RFC4 (replication factor C subunit 4) | 2 | 49.1 | active
RFC4 (replication factor C subunit 4) | 3 | 45.7 | active
